From PubChem BioAssay AID1671190 (National Center for Advancing Translational Sciences (NCATS), 2021)
About 6,100 (1.1%) of roughly 580,000 compounds were called active. Inconclusive means that the source gave no clear call. Such entries were picked first, then a sample of the others. The call rests on the fitted dose curve; in most records, active means well fitted inhibition curve with a large enough effect; inconclusive means small, poorly fitted or top-dose-only effect, or another doubt; inactive means no such curve, though single readings can be large or run the other way. A potency beside an inconclusive call is a rough fit, not a confirmed value.

Chains of the proteins cited; added tags and fusions are not shown. Lines headed by an entry give the natural chain unless they say otherwise; changes in a name come on top.
UniProt P18054: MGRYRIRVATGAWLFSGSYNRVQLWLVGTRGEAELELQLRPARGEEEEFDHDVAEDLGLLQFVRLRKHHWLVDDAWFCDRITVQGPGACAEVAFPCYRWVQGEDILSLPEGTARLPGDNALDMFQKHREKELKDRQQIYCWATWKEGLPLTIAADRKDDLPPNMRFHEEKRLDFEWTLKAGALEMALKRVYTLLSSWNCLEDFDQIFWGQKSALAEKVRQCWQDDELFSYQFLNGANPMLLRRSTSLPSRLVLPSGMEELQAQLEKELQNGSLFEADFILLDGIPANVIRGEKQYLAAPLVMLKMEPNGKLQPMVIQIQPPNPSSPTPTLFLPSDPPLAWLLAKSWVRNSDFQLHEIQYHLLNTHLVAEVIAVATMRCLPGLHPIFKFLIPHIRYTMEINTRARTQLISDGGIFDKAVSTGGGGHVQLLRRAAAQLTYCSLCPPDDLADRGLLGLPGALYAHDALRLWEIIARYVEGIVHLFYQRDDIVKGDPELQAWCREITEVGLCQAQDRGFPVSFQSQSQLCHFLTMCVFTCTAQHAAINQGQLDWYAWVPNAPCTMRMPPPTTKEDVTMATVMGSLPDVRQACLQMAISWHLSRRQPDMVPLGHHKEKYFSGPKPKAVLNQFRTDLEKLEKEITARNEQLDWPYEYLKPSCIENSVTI

What follows are molecules tested against Polyunsaturated fatty acid lipoxygenase ALOX12 (Homo sapiens) (UniProt P18054) (assay: Primary qHTS assay for inhibitors of human arachidonate 12S-lipoxygenase (ALOX12): Round 2). Details: purified 12hLO, xylenol orange hydroperoxide absorbance; activity change, negative = inhibition: at 108 µM (top of the series) unless noted.
Procedure, shortened: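 Hydroperoxide product was detected by ferrous iron/xylenol orange as the 573 to 405 nm absorbance ratio. Arachidonic acid at 40 uM (final) was turned over for 30 min at room temperature by 150 nM human 12hLO, pH 7.0 Hepes buffer, after 15 min compound preincubation.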
On the % scale 0 is the no-effect control and ±100 the full control effect; potency means the concentration at half of the fitted maximal effect.

SMILES	Potency	activity change, negative = inhibition
CCOc1ccc2nc(NC(=O)C3CCN(C(=O)c4ccco4)CC3)sc2c1	inconclusive: 141 µM [inhibitor, partial curve, poor fit]	–
CN(C)C1(CNCc2csc(-c3ncccn3)n2)CCCC1	inactive	–
COc1ccc(C2CC(c3ccccc3)=NN2c2ccc(S(N)(=O)=O)cc2)cc1OC (stereo unspecified)	inconclusive: 28.2 µM [inhibitor, partial curve, poor fit]	–
Cc1ccc(NCC(=O)Nc2cc(C(F)(F)F)ccc2-n2cncn2)c(F)c1	inactive	–
Cc1c(C(=O)CN2CCN(c3ccccc3)CC2)c2ccccc2n1C	inconclusive: 44.7 µM [inhibitor, partial curve, poor fit]	–
CCCCN1C(=O)C(CC(=O)NCCCCc2ccccc2)CC(C(=O)N2CCOCC2)=C1C (stereo unspecified)	inconclusive: 158 µM [inhibitor, single point]	–
CCOc1ccc(C(=O)OCc2nc(N)c3ccccc3n2)cc1	inconclusive: 89.1 µM [inhibitor, partial curve, poor fit]	–
COc1cccc(NC(=S)N2C3CCCC2CC(NC(=O)C2CC2)C3)c1 (stereo unspecified)	inactive	–
COc1ccc(CNC(=O)c2ccc3c(c2)NC(=O)C(C)S3)cc1 (stereo unspecified)	inconclusive: 141 µM [inhibitor, single point]	–
CCN1CCCc2cc(CN(CCN3CCOCC3)C(=S)Nc3cccc(Cl)c3)ccc21	inactive	–
Cc1ccccc1C(c1ncccc1C)N(C)C(=O)C1CCN(CCOc2ccc(Cl)cc2Cl)CC1 (stereo unspecified)	inconclusive: 44.7 µM [inhibitor, partial curve, poor fit]	–
O=C1NC[C@H](CCCCN2CCN(CCc3ccc(O)cc3)C(=O)C2=O)N(CCc2ccc(O)cc2)C1=O	inconclusive: 0.562 µM [inhibitor, full curve]	–
CCOc1ccccc1C(=O)Nc1c(NCc2ccccc2)c2ccccc2oc1=O	inconclusive: 44.7 µM [inhibitor, partial curve]	–
CCOc1ccc(CNC(=O)C2CCCN(S(=O)(=O)N(C)c3ccc(F)cc3)C2)cc1OC (stereo unspecified)	inconclusive: 39.8 µM [inhibitor, partial curve, poor fit]	–
COc1ccc(N2C(=O)c3n[nH]c(C(C)C)c3C2c2ccc(C)cc2)cc1 (stereo unspecified)	inconclusive: 50.1 µM [inhibitor, partial curve, poor fit]	–
O=C(c1ccc2c(c1)OCO2)N1CCCC(c2ccccc2)C1 (stereo unspecified)	inconclusive: 17.8 µM [inhibitor, full curve, poor fit]	–
c1ccc2c(N3CCOCC3)nc(-c3ccoc3)nc2c1	inconclusive: 7.08 µM [inhibitor, full curve, poor fit]	–
CC(=O)Oc1c2occc2cc2ccc(=O)oc12	inconclusive: 28.2 µM [inhibitor, single point]	–
O=C(Nc1cccc(Br)c1)c1ccc(CN2CCc3ccccc3C2)cc1	inactive	–
Cn1ncc2c(C(=O)NCc3ccncc3)cc(-c3ccc(F)cc3)nc21	inconclusive: 70.8 µM [inhibitor, partial curve, poor fit]	–
COc1cccc(Cn2c(NCc3ccc(C)cc3)nc3c2c(=O)n(C)c(=O)n3C)c1	inconclusive: 2.51 µM [inhibitor, full curve, poor fit]	–

SMILES	Potency	activity change, negative = inhibition
Fc1ccc(Nc2cncc(-c3ccsc3)c2)cc1Cl	active: 39.8 µM	–
COc1ccc(C(=O)/C=C2\NCC3c4ccccc4CCN3C2=O)cc1 (stereo unspecified)	inconclusive: 31.6 µM [inhibitor, partial curve, poor fit]	–
Cc1[nH][nH]c(=O)c1N=Nc1ccc(S(N)(=O)=O)cc1	inconclusive: 7.94 µM [inhibitor, partial curve, poor fit]	–
O=C(Cc1n[nH]c(=O)c2ccccc12)Nc1ccccc1F	inconclusive: 89.1 µM [inhibitor, single point]	–
N#Cc1ccc(C(=O)Nc2ccc(-c3nnc4n3CCCC4)cc2)cc1	inconclusive: 17.8 µM [inhibitor, partial curve, poor fit]	–
CCOc1ccc(S(=O)(=O)N2CCOCC2)cc1NC(=O)CSC(=S)N1CCCC1	inconclusive: 2 µM [inhibitor, full curve, poor fit]	–
Cc1ccsc1CN1CC(=O)N(c2c(C)cccc2C)C1=S	inconclusive: 100 µM [inhibitor, single point]	–
COc1ccc(N2CCC(CNC(=O)Nc3cccc(OC)c3)C2)cc1 (stereo unspecified)	inconclusive: 44.7 µM [inhibitor, partial curve, poor fit]	–
CSc1nc2c(c(=O)[nH]1)C(c1cccs1)C1=C(CCCC1=O)N2 (stereo unspecified)	inactive	–
CC(SCc1nc2sc3c(c2c(=O)[nH]1)CCCC3)C(=O)Nc1ccccn1 (stereo unspecified)	inconclusive: 100 µM [inhibitor, partial curve, poor fit]	–
O=C(Nc1ccc(F)cc1)c1ccc2c(Cl)c3c(nc2c1)CCC3	inconclusive: 39.8 µM [inhibitor, partial curve, poor fit]	–
Cc1ccc(CN2CC(N3CCC(Cc4ccccc4)CC3)CS2(=O)=O)cc1 (stereo unspecified)	inconclusive: 112 µM [inhibitor, partial curve, poor fit]	–
O=c1/c(=C/c2ccc(O)c([N+](=O)[O-])c2)sc2nc3ccccc3n12	inconclusive: 39.8 µM [inhibitor, partial curve, poor fit]	–
O=C(CN1CCN(Cc2ccc(Cl)cc2)CC1)N1CCc2ccccc21	inconclusive: 112 µM [inhibitor, partial curve, poor fit]	–
CNc1nc(N/N=C/c2cc([N+](=O)[O-])ccc2F)nc(Nc2ccccc2)n1	inconclusive: 3.98 µM [inhibitor, full curve, poor fit]	–
CCOC(=O)c1cc(C(C)(C)C)oc1CNC(=O)c1c(C)oc2c1CCCC2	inconclusive: 1.58 µM [inhibitor, full curve, poor fit]	–
COc1cccc(CN(C)CC(O)COc2c(C)cccc2C)c1OC (stereo unspecified)	inactive	–
Cc1ccc(C)c(Nc2nc(NCc3ccco3)c3ccccc3n2)c1	inconclusive: 44.7 µM [inhibitor, partial curve, poor fit]	–
Cc1ccc(NC(=O)CS(=O)CC(=O)Nc2ccc(N3CCOCC3)cc2)cc1Cl (stereo unspecified)	inconclusive: 35.5 µM [inhibitor, partial curve, poor fit]	–
CCC1c2ccsc2CCN1C(=O)/C=C/c1ccccc1 (stereo unspecified)	inactive	–
COCCn1cnc2c1c(=O)n(Cc1ccccc1)c(=O)n2CC(C)C	inactive	–

Retrieved by structure from the list above:
SMILES	Potency	activity change, negative = inhibition
CCOC(=O)c1cc(C(C)(C)C)oc1CNC(=O)c1c(C)oc2c1CCCC2	inconclusive: 1.58 µM [inhibitor, full curve, poor fit]	–
O=c1/c(=C/c2ccc(O)c([N+](=O)[O-])c2)sc2nc3ccccc3n12	inconclusive: 39.8 µM [inhibitor, partial curve, poor fit]	–
O=C(CN1CCN(Cc2ccc(Cl)cc2)CC1)N1CCc2ccccc21	inconclusive: 112 µM [inhibitor, partial curve, poor fit]	–

Going on with the list:

SMILES	Potency	activity change, negative = inhibition
CCOC1CSc2sc(=S)sc2S1 (stereo unspecified)	inconclusive: 3.16 µM [inhibitor, full curve, poor fit]	–
Cc1cc(N/N=C/c2ccccc2Cl)nc(NCc2ccccc2)n1	inconclusive: 56.2 µM [inhibitor, partial curve, poor fit]	–
CC(=O)N1c2ccc(S(=O)(=O)N3CCC(C(=O)Nc4ccc(C)cn4)CC3)cc2CC1C (stereo unspecified)	–	inconclusive: -34.4% [inhibitor]
COC(=O)[C@@H]1CCCN1Cc1ccc2c(c1)CN(Cc1ccc3c(c1)CCCN3C)CCO2	inconclusive: 100 µM [inhibitor, single point]	–
CCC1(N2CCN(C(=O)c3ccccc3OC(F)(F)F)CC2)CCN(S(C)(=O)=O)C1 (stereo unspecified)	inconclusive: 6.31 µM [inhibitor, full curve]	–
O=C(Nc1ccc(-c2nnn(CC(=O)N3CCN(C(=O)c4ccco4)CC3)n2)cc1)c1ccc(F)cc1	inconclusive: 5.62 µM [inhibitor, partial curve, poor fit]	–
Cc1cc(C)cc(NC(=O)CSCc2cc(=O)c3ccc(C)c(C)c3[nH]2)c1	inconclusive: 141 µM [inhibitor, partial curve, poor fit]	–
Cc1ccc(-c2c(NC(=O)CN3CCC(C(N)=O)CC3)oc3ccccc3c2=O)cc1	inactive	–
CN(C)CCCNC1CCCC1	inconclusive: 11.2 µM [inhibitor, full curve]	–
Cc1ccc(C(=O)c2c(NC(=O)CSc3nnc(N)s3)sc3c2CCCC3)cc1	inconclusive: 7.94 µM [inhibitor, full curve]	–
CN(C)c1ccc(CNS(=O)(=O)c2ccc3c(c2)C(C)(C)C(=O)N3C)cc1	inconclusive: 89.1 µM [inhibitor, single point]	–
O=c1cc(-c2ccccc2)n2c(SCc3cccc([N+](=O)[O-])c3)nnc2[nH]1	inconclusive: 89.1 µM [inhibitor, partial curve, poor fit]	–
COc1ccc(CN2CCC(C(N)=O)CC2)cc1OCc1ccccc1	inconclusive: 0.447 µM [inhibitor, full curve, poor fit]	–
O=C(NCc1cccs1)c1ccc2c(c1)CC(=O)N2Cc1ccc(F)cc1	inactive	–
COc1ccc(-c2csc(N(CC3CCCO3)C(=O)c3cccs3)n2)cc1 (stereo unspecified)	inconclusive: 3.98 µM [inhibitor, full curve, poor fit]	–
c1nc(N2CCC3(CC2)OCCO3)c2[nH]cnc2n1	inconclusive: 141 µM [inhibitor, partial curve, poor fit]	–
COc1ccc(C(=O)N[C@H]2CO[C@H]3[C@@H]2OC[C@@H]3n2cc(-c3ccccn3)nn2)cc1	inconclusive: 89.1 µM [inhibitor, partial curve]	–
N#C/C(=C\C=C\c1ccco1)C(=O)NC1CCCCC1	inconclusive: 5.62 µM [inhibitor, full curve, poor fit]	–
Cc1ccc(C)c(NC(=O)Cn2ccn(-c3cccc(Cl)c3)c(=O)c2=O)c1	inconclusive: 141 µM [inhibitor, single point]	–

Rewritten comma-delimited: 2 of the compounds above
SMILES,Potency,"activity change, negative = inhibition"
Cc1ccc(C)c(Nc2nc(NCc3ccco3)c3ccccc3n2)c1,"inconclusive: 44.7 µM [inhibitor, partial curve, poor fit]",–
Cc1ccc(NC(=O)CS(=O)CC(=O)Nc2ccc(N3CCOCC3)cc2)cc1Cl (stereo unspecified),"inconclusive: 35.5 µM [inhibitor, partial curve, poor fit]",–
